Source: PMC7819943, “Rice protein-binding microarrays: a tool to detect cis-acting elements near promoter regions in rice”
This is one part of the list.

By UniProt entry, the sequences of proteins in these tests, tags left out.
UniProt Q0JBA9, entry or part of it: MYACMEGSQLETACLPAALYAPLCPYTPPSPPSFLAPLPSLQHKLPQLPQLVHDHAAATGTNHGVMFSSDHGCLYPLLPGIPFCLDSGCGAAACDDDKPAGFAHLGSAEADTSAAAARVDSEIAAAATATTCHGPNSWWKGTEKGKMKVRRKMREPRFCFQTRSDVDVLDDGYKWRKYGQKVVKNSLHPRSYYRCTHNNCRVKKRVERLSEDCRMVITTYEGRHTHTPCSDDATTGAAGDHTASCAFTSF

What follows are sequences tested against OsWRKY34 (Oryza sativa, UniProt Q0JBA9 1-250) (assay: protein-binding microarray (RPBM); PBS, 2% BSA, 51.3 ng/ul salmon testes DNA, 50 uM zinc acetate, 200 nM TF, 25 C, 1 h; high values mean tight binding). Conditions: protein: recombinant; tags: N-terminal polyhistidine and DsRed monomer fusion (pET32a); label: CyDye5-dUTP incorporated in the synthesized complementary strand; 3' TTTTT single-stranded linker to array surface; dsDNA, one strand shown.
Outline: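 Per-feature fluorescence intensity (arbitrary units), read on an Axon 4000B scanner, is the binding signal. Transcription factors carrying an N-terminal polyhistidine tag and DsRed fusion were expressed in E. coli BL21-CodonPlus and purified on Ni–NTA. A custom Agilent array, made double-stranded by primer extension with Cy5-dUTP and blocked with 2% BSA, was incubated with 200 nM protein in PBS, 2% BSA, salmon testes DNA and 50 µM zinc acetate at 25 °C for 1 h and then washed.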

Sequence	binding signal
TCTCAGTGGTTGCTTATTTCTTAAATCTTTATCATATCAGCGGAGTCACCTAGTGCAG	11500 fluorescence intensity (a.u.)
GCAATTTCTGTGTTTTGCAATCATCTGTTTTACACTTGCACGGAGTCACCTAGTGCAG	10400 fluorescence intensity (a.u.)
GGTTGTGTTCTTGTTGGCGAGGAGGAGAGAGGGGTGGGGTCGGAGTCACCTAGTGCAG	14700 fluorescence intensity (a.u.)
ATAGAGGCCATGTGCTGCTCCGGCAATTCTTTCTCTACATCGGAGTCACCTAGTGCAG	8770 fluorescence intensity (a.u.)
ATGATTTTTCGTGCCCAACTTTAATTGTCCGTATTTTTTGCGGAGTCACCTAGTGCAG	8430 fluorescence intensity (a.u.)
TGCCTTGAGATCTTTTGTTTAACCACCACCAAGGCTGGGGCGGAGTCACCTAGTGCAG	8890 fluorescence intensity (a.u.)
TATTTGTTTAGGGCAGCATTTCTTCGGCGTGTTCCAACCTCGGAGTCACCTAGTGCAG	8500 fluorescence intensity (a.u.)
TCAATTCGATCGCGTGTGCTGTGTGGGACCCGTGGGCGCCCGGAGTCACCTAGTGCAG	8260 fluorescence intensity (a.u.)
CCGTCTCCATCCACACCTTCTCTCTTTGGCCTTATCTTCTCGGAGTCACCTAGTGCAG	14900 fluorescence intensity (a.u.)
GCGTGTGTGTCTGAGAGAGAGATCAGAGATGAGGGCGGGCCGGAGTCACCTAGTGCAG	8680 fluorescence intensity (a.u.)
CGCCGCGTGGTTCTTCGTTTCGTTTGTCTCGCCATCTCTTCGGAGTCACCTAGTGCAG	16200 fluorescence intensity (a.u.)
GACATCAGGGTTTATCTTTATTTGGGATGGAGGGTGTAGGCGGAGTCACCTAGTGCAG	9980 fluorescence intensity (a.u.)
GTGTCTGCCATCCTGCTATGTTGTGTGCGTGAGAAAATAACGGAGTCACCTAGTGCAG	9000 fluorescence intensity (a.u.)
TAGTGGGGAGGCGGTGGTGCTGCGGGGAGGGAGGGAGCACCGGAGTCACCTAGTGCAG	12800 fluorescence intensity (a.u.)
CTCCTCCATTGCCAGTTGCTACTCATCCTCATCCTCTCCACGGAGTCACCTAGTGCAG	8290 fluorescence intensity (a.u.)
AAGTGTGGTCCTACTGTGCAGCTCCATGTTGTTGAAGAATCGGAGTCACCTAGTGCAG	10200 fluorescence intensity (a.u.)
GGAGTTGACCAACATGGCTGCCTTTTAGCTGAACTCTTTTCGGAGTCACCTAGTGCAG	9430 fluorescence intensity (a.u.)
TTGAATATGTAATCAGTAATGTGCTTGGTTTAGCGGGGAACGGAGTCACCTAGTGCAG	10800 fluorescence intensity (a.u.)
TGTATAGCTAGTAGTAGGATCTTGGTTTATTTTGATTTGCCGGAGTCACCTAGTGCAG	9800 fluorescence intensity (a.u.)
AGCTCTCTCTGCTACTCCTCCTAGCTGCATGCTAAGCTAACGGAGTCACCTAGTGCAG	8320 fluorescence intensity (a.u.)
TCCCTAACAAAAATTTTGCACCCTATTGCATTGAGCGTTTCGGAGTCACCTAGTGCAG	8410 fluorescence intensity (a.u.)

Looked up one by one from the entries so far, 2 records:
Sequence	binding signal
CCGTCTCCATCCACACCTTCTCTCTTTGGCCTTATCTTCTCGGAGTCACCTAGTGCAG	14900 fluorescence intensity (a.u.)
GGAGTTGACCAACATGGCTGCCTTTTAGCTGAACTCTTTTCGGAGTCACCTAGTGCAG	9430 fluorescence intensity (a.u.)

Further entries:

Sequence	binding signal
AACATAAACACACATCATTTCCTGTCCCTTGCACGCTACGCGGAGTCACCTAGTGCAG	10000 fluorescence intensity (a.u.)
TTTTTTTGTTTTCAATTTGTGTGTGTGTGTGTGTTTCAAGCGGAGTCACCTAGTGCAG	9320 fluorescence intensity (a.u.)
AGTTGGCAATAGATCTGCGGCTCACTTGTCTTGTTTCTCTCGGAGTCACCTAGTGCAG	11400 fluorescence intensity (a.u.)
ACACGGAAACGGTTACCTCTGTTCGCCTCGTCCTTTTCCTCGGAGTCACCTAGTGCAG	8480 fluorescence intensity (a.u.)
CCAAATTCTTCTACGATTCTTATGTTCTTCAGGATACTTGCGGAGTCACCTAGTGCAG	8540 fluorescence intensity (a.u.)
CGCTGCCCGTTGCCCGCAAGCGTCACACACTGCTTACACCCGGAGTCACCTAGTGCAG	10900 fluorescence intensity (a.u.)
TCTCCTCCCTCGTTTCTCCTGACACGCTCTCATCCTACAACGGAGTCACCTAGTGCAG	8660 fluorescence intensity (a.u.)
GGCTTGGCCATCGGTTGGCCAGTGTGTTGGAGCTCTTTTTCGGAGTCACCTAGTGCAG	8640 fluorescence intensity (a.u.)
TCTCAGCCGTGGTGAGCCTCTTTCTGATTCATCTCTCTCTCGGAGTCACCTAGTGCAG	9830 fluorescence intensity (a.u.)
AATTTCCCTTTAGTATAACCTGCTACAATTAAAATTTTATCGGAGTCACCTAGTGCAG	8550 fluorescence intensity (a.u.)
GTTTTTTCAGATATTTTATTTTCCTCTTTTTTTTGTTGTCCGGAGTCACCTAGTGCAG	9310 fluorescence intensity (a.u.)
GCGGCCAGTACTCATCACTCTATATACGAGCCTTTGCTACCGGAGTCACCTAGTGCAG	8340 fluorescence intensity (a.u.)
GGTGTCCAGCAACTAATTACCACATTTTTACAGTGTCCACCGGAGTCACCTAGTGCAG	9010 fluorescence intensity (a.u.)
CGACTCCACCTATCTCGGCAGCATCACATTCGGAGGGCATCGGAGTCACCTAGTGCAG	10900 fluorescence intensity (a.u.)
GGGAGCGGCGGAGGAGGAGGGCGCGGCGGCGGTGGGGTGGCGGAGTCACCTAGTGCAG	18100 fluorescence intensity (a.u.)
CCTCTTCCCCTGCTTTCTTTGTCTTTCTCAAACAGGTTACCGGAGTCACCTAGTGCAG	8560 fluorescence intensity (a.u.)
GTTGTTAATTGTCTCGTGCATGTGATCCATGTATGCGCCACGGAGTCACCTAGTGCAG	9000 fluorescence intensity (a.u.)
CTCCGGGGAATATCTATGGGTCTTGTGGGTGTAGGGAGGACGGAGTCACCTAGTGCAG	8770 fluorescence intensity (a.u.)
AGAGCGACCTCCTCCATCCATCCCGTCTGCCGCCGGCGCCCGGAGTCACCTAGTGCAG	10100 fluorescence intensity (a.u.)
ATTTCTATTTTATGAACGATGGGCTTGGGTTTGTGCTGGTCGGAGTCACCTAGTGCAG	11300 fluorescence intensity (a.u.)
TCCAGACTGATGTCATTTTCTGTAGTAGTGTAAGCCTTCACGGAGTCACCTAGTGCAG	8490 fluorescence intensity (a.u.)
